# Test results as given in US20230270892A1, “CHELATOR COMPOSITIONS FOR RADIOMETALS AND METHODS OF USING SAME” (TRIUMF INC., priority 2020, published 2023).
# Columns and labels:
# Type in all cases: physicochemical
# [1] = ^225Ac radiolabelling of crown, crown-TATE and DOTA monitored by radioTLC; settings: for chelator concentration at which quantitative ^225Ac labeling was achieved: 15 minutes
# Procedure: ^225Ac labeling of crown was achieved by mixing the ligand and isotope in acetate buffers between pH 5-7 at ambient temperature. Reactions were monitored by radioTLC. TLC plates were scanned 5 hours after developing to allow the decay of short-lived isotopes, particularly ^213Bi that binds stronger with DOTA-type chelators, and for ^225Ac to reach equilibrium. Crown or Crown-TATE (3 µL, 10^-3 M aqueous unless specified), purified ^225Ac (2.5 uL in 0.05 M HNO3) and ammonium acetate buffer (20 µL, 1 M, fresh) mixed together and kept at room temperature for 30 minutes.
# 1-5 µL of sample was spotted on SA iTLC plate (silicic acid-embedded instant thin layer chromatography plate) and developed with ethylenediamine tetraacetic acid (EDTA) (pH 5, 0.05 M). Free Ac moves to the solvent front, and Ac labelled products stay close to the bottom of the plate. Alternatively, the TLC can also be developed on a silica plate with Al backing, using citrate buffer (pH 4, 0.4 M). The plate was counted 1 day after to allow the decay of shorter lived isotopes.
# Stock solutions of crown (10^-3 M - 10^-6 M) and DOTA (10^-3 M - 10^-6 M) were prepared in water. Ligand (1 µL), buffer (1 M pH 7 NH4OH, 1 µL), water (7 µL), and ^225Ac stock (1 µL, 10-30 kBq) were mixed together. For crown, the reaction was kept at room temperature for 15 min and for DOTA, the reaction was at 90° C. for 15 min. 2-5 µL was taken for radioTLC monitoring at various time points. The sample was spotted on a silica plate with aluminium backing (10 cm x 1.5 cm) and developed with sodium citrate (0.4 M, pH 4). The plates were scanned >5 hours later when all the daughters reach secular equilibrium. Under those conditions, unchelated actinium migrates to the solvent front (Rf=1) and chelated actinium remains close baseline (Rf<0.5). n=3 for each data point.
# [2] = ^177Lu labelling of crown versus DOTA
# Procedure: Experiments were also conducted to evaluate the labelling of crown, crown-αMSH and crown-TATE with other radiometals. Results for the three constructs and a comparative chelator DOTA chelating ^177Lu are shown in FIG. 16 at various concentrations of chelator.
# [3] = ^225Ac radiolabeling yield and molar activity of αMSH constructs; settings: for Molar activity: final product, n = 5
# Procedure: In a similar method as described above, ^225Ac -crown-αMSH was generated upon incubation of the modified peptide with ^225Ac in acetate buffer. […] When purification was required, light C18 Sep-Pak™ was used to remove free ^225Ac. Molar activity for the final product was determined to be 4.1 ± 1.9 MBq/nmol (n = 5), the highest among reported methods to date.^[20,22] Serum stability study indicated ~90% ^225Ac remain chelated over 8 days.
compound,measurement,setting,value
"O=C(O)CN1CCN(CC(=O)O)CCN(CC(=O)O)CCN(CC(=O)O)CC1 [DOTA, reference compound]",chelator concentration at which quantitative ^225Ac labeling was achieved,[1]; 90° C.,> 10^-4 M
same,chelator concentration at which quantitative ^177Lu labelling was achieved,"[2]; 90° C., 30 minutes",10^-4 M
"CCCC[C@H](NC(=O)CN1CCC(NC(=O)CN2CCOCCN(CC(=O)O)CCN(CC(=O)O)CCOCCN(CC(=O)O)CC2)CC1)C(=O)N[C@H]1CC(=O)NCCCC[C@@H](C(N)=O)NC(=O)[C@H](Cc2c[nH]c3ccccc23)NC(=O)[C@H](CCCNC(=N)N)NC(=O)[C@@H](Cc2ccccc2)NC(=O)[C@H](Cc2c[nH]cn2)NC1=O [^225Ac-crown-αMSH, metal not drawn]",radiolabeling yields with ^225Ac,"[3]; acetate buffer, levels up to 6 MBq",> 98%
same,Molar activity,[3],4.1 MBq/nmol
same,Molar activity,[3]; listed as 225Ac -crown-αMSH,4.1 ± 1.9 MBq/nmol
"O=C(O)CN1CCOCCN(CC(=O)O)CCN(CC(=O)O)CCOCCN(CC(=O)O)CC1 [crown, 2,2’,2”,2’”-(1,10-dioxa-4,7,13,16-tetraazacyclooctadecane-4,7,13,16-tetrayl)tetraacetic acid]","chelation of ^225Ac, reaction reached (radioTLC)","[1]; crown concentration of 10^-5 M, at 10 min, room temperature",> 96%
same,concentration as low as which a stable complex with ^225Ac forms quantitatively,[1]; room temperature and neutral pH,10^-5 M
same,chelator concentration at which quantitative ^225Ac labeling was achieved,[1]; room temperature,> 10^-6 M
same,chelator concentration at which quantitative ^177Lu labelling was achieved,"[2]; room temperature, 15 minutes",10^-6 M
